The results in this text go back to patent US20130225478A1 (YEDA RESEARCH AND DEVELOPMENT, published 2013).

Assay [1] deals with T1, TLR1 protein (mouse (RAW264.7 murine macrophages)) (UniProt Q9EPQ1).
T1 sequence (looked up): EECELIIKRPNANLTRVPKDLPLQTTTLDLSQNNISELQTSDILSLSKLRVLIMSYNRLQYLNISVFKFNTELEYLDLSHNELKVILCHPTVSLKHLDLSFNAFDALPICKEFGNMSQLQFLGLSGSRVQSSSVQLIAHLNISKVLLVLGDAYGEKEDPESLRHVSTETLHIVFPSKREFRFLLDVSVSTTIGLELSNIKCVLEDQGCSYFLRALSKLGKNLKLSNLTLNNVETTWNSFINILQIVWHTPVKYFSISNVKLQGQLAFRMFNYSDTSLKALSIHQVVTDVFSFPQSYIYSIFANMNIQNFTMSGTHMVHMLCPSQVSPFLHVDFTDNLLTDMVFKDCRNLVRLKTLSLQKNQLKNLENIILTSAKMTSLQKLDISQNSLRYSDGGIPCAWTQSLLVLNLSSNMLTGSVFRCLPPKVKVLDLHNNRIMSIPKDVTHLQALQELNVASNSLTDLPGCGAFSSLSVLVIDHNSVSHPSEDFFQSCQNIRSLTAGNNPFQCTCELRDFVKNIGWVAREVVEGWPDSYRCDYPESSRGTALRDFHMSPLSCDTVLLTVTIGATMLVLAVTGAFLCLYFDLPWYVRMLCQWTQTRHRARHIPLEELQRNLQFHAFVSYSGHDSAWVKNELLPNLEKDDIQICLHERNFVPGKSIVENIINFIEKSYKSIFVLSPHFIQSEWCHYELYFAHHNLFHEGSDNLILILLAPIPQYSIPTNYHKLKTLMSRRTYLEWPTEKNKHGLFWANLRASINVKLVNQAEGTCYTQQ
The assay can be described thus: co-immunoprecipitation from RAW264.7 lysate, rhodamine-labeled peptide (FIG. 5A).

The target of assay [2] is T1, TLR1 protein (mouse (RAW264.7 murine macrophages)). The assay can be described thus: co-immunoprecipitation from RAW264.7 lysate, 10 µM rhodamine-labeled peptide, fluorescent scan of SDS-PAGE.

These are yes or no findings as the source states them, for the method shown. In cells and extracts the contact can be indirect. Some binding calls cover weakened binding; strength is not graded here.

Consider KKALVSGVAAALLLLILLVGKK (N-terminal rhodamine (TAMRA) label; synthesized on Rink amide MBHA resin) [mTLR2 TM N′-CtoA], for which the binding entry in assay [1] and in assay [2] was “binds” in each case.

Turning to KKLILLVGALAHHFHGLWKK (N-terminal rhodamine (TAMRA) label; synthesized on Rink amide MBHA resin) [mTLR2 TM C′-CtoA], the binding result in assay [1] and in assay [2] was “binds” throughout.
